PubChem BioAssay AID2417 (National Center for Advancing Translational Sciences (NCATS), 2010)
Hit rate of the full screen: of about 140,000 compounds, about 4,300 (3.1%) were called active. The shares of active, inactive and inconclusive entries below differ from those in the screen.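 The calls were made as follows: active = readout at or below -70, meaning at least 70% loss of cells showing the perinucleolar compartment, a nuclear body marking cancer cells; inconclusive = readout between -30 and a set limit; inactive = the rest.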

assay: High Content Assay for Compounds that inhibit the Assembly of the Perinucleolar Compartment; conditions: PC3M PTB-GFP, PNC prevalence imaging, 16 h; at 10 µM; active compounds read low;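 also: plate controls were DMSO wells for no effect and camptothecin positive control wells for full effect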
Summary of the method: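 PC3M cells stably expressing PTB-GFP, 750–1000 cells/well, treated 16 h at 37 °C with compound (23 nl of library stock), in duplicate. After paraformaldehyde fixation and Hoechst stain, imaged at 20x; PNC prevalence scored by image analysis.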

Row | SMILES | activity change (PNC), negative = inhibition
1 | CCN(CC)CCOC(=O)c1ccc(NC(=O)CNC(=O)C2CCCCC2)cc1 | inconclusive: -42.5%
2 | CC(=O)Nc1ccc(S(=O)(=O)NCCc2ccc(S(N)(=O)=O)cc2)cc1 | inconclusive: -36.6%
3 | Cc1cc(C=C(C#N)C#N)c(C)n1-c1ccccc1 | inconclusive: -48.1%
4 | O=C(NCc1ccco1)c1ccc(N2CCCCC2)c([N+](=O)[O-])c1 | inconclusive: -46.6%
5 | Cc1ccc(C2N(c3ccc(F)cc3)C(=O)C3CCCN32)cc1 (stereo not drawn) | inactive: -10.6%
6 | O=C(CCNC(=O)c1ccccc1Cl)Nc1nc(-c2ccccc2Cl)cs1 | inactive: 27.8%
7 | COc1ccc(N2CCN(C(=O)C3CCCN(S(=O)(=O)c4cccc5cccnc45)C3)CC2)cc1 (stereo not drawn) | inconclusive: -36%
8 | CN(NC1CC(=O)N(c2ccccc2)C1=O)c1ccccc1 (stereo not drawn) | inconclusive: -31%
9 | COc1cc(NC(=O)c2ccccc2Cl)c(OC)cc1NC(=O)CN1CCOCC1 | active: -89.9%
10 | COC(=O)c1sc(NC(=O)CSc2nncs2)c(C(=O)OC)c1C | inactive: 19.1%
11 | Cc1ccccc1-n1c(-c2ccco2)n[nH]c1=S | active: -114%
12 | Cc1ccc(/C=N/NC(=O)COc2ccccc2-c2ccccc2)cc1 | active: -125%
13 | COC(=O)c1[nH]c2ccc(Cl)cc2c1NC(=O)CN1CCC(C(N)=O)CC1 | inconclusive: -59.9%
14 | O=c1c2ccccc2nc2n1CCN2Cc1ccc(Cl)cc1 | inconclusive: -48.1%
15 | O=C(CSc1nnc(SCc2ccccc2)s1)N/N=C/c1ccc(Cl)cc1Cl | inconclusive: -66.6%
16 | COc1cccc([C@@H]2Oc3ccc(OC)cc3C(=O)[C@H]2OC(=O)NCc2ccc3c(c2)OCO3)c1 | inconclusive: -38.8%
17 | O=C(C1CCCO1)N1CCN(C(c2ccccc2)c2ccccc2)CC1 (stereo not drawn) | inconclusive: -55.3%
18 | Cc1ccc(OCC(=O)n2nc(C)cc2C)c(Br)c1 | inconclusive: -68.7%
19 | O=S(=O)(c1ccc2c(c1)OCCO2)N1CCC(O)(c2ccc(Cl)cc2)CC1 | active: -125%
20 | CCn1c(SCc2nnc(-c3ccccc3)o2)nnc1-c1ccc(S(=O)(=O)N2CCCC2)cc1 | inconclusive: -52.9%
21 | CC(C)c1ccccc1NC(=O)c1cccc(NC(=O)c2ccccc2)c1 | inconclusive: -31.7%
22 | Cc1nn(C)c(C)c1Sc1ccc(Br)cc1 | inconclusive: -45.2%

Row | SMILES | activity change (PNC), negative = inhibition
23 | CCOc1cc(C2NC(=O)NC(O)(C(F)(F)F)C2C(=O)c2ccccc2)ccc1OC (stereo not drawn) | inactive: -14.2%
24 | NC(=O)CCn1nc(-c2ccccc2)c2ccccc2c1=O | inactive: 5.56%
25 | Cc1ccc(-c2nnc3ccc(SCC(=O)Nc4cc(C)on4)nn23)cc1 | inactive: -0.876%
26 | Cc1cc(C(=O)NC(CC(C)C)C(=O)O)cc(C)c1[N+](=O)[O-] (stereo not drawn) | inactive: 30.2%
27 | CC(=O)N(C)c1ccc(NC(=O)c2ccc([N+](=O)[O-])cc2Cl)cc1 | inactive: 32.9%
28 | CCOC(=O)CSc1nc(C2CC2)cc(-c2ccc(Cl)cc2)c1C#N | inconclusive: -54.4%
29 | O=C1NC(c2ccc(Br)cc2)Nc2sc3c(c21)CCC3 (stereo not drawn) | inconclusive: -31.1%
30 | CC(=O)c1ccc(NC(=O)CSCC(=O)Nc2ccc3ccccc3c2)cc1 | inconclusive: -60.1%
31 | CN(C)/C=N/c1sc2c(c1C#N)CCC2 | inactive: -29.6%
32 | Cc1ccccc1OCCn1cc(/C=C(\C#N)C(=O)NCc2ccco2)c2ccccc21 | inconclusive: -30.8%
33 | CCOC(=O)c1c(N)sn(-c2ccccc2C)c1=S | inactive: -21.3%
34 | COCCn1c(SCC(=O)Nc2cc(C(C)(C)C)nn2-c2ccccc2)nc2ccccc2c1=O | inconclusive: -75.8%
35 | COc1cccc(-n2cnc3cccc(N)c32)c1 | inconclusive: -60.1%
36 | Cc1ccccc1NC(=O)C1CCCN(S(=O)(=O)c2cccc3cccnc23)C1 (stereo not drawn) | inconclusive: -33.5%
37 | COC(=O)c1ccc(NC(=O)C23CC4CC(C2)CC(n2cnc(Cl)n2)(C4)C3)cc1 | inconclusive: -53.9%
38 | CCOC(=O)C1=C(C)NC(=O)NC1c1ccc(OCC(N)=O)cc1 (stereo not drawn) | active: -100%
39 | C/C=C/C=N/NC(=O)CN(c1ccc(Br)cc1)S(=O)(=O)c1ccccc1 | inactive: 44.8%
40 | N=C1C(c2nc3ccccc3c(=O)[nH]2)=C(O)CN1c1ccccc1 | inconclusive: -69.5%
41 | CC(C)=C1C2C=CC1C(C(=O)Nc1cc(C)ccc1C)C2C(=O)O (stereo not drawn) | inactive: 36%
42 | CC(=O)c1cc(-c2ccccc2)n(CC(=O)Nc2ccc(C)c(C)c2)c1C | inactive: 36.8%
43 | CCOC(=O)N1CCN(C(=O)CSc2nnc(COc3ccccc3)o2)CC1 | inconclusive: -60.5%
44 | CCOc1c2ccc(C(=O)NCc3ccco3)cc2nn1CC | inconclusive: -39.9%

Row | SMILES | activity change (PNC), negative = inhibition
45 | COc1ccc(C(=O)C2C(c3ccc(-c4ccccc4[N+](=O)[O-])o3)NC(=O)NC2(O)C(F)(F)F)cc1 (stereo not drawn) | inconclusive: -53.8%
46 | COC(=O)c1cccc(N2C(=O)C(Cl)=C(N3CCOCC3)C2=O)c1 | inactive: -22.4%
47 | C/C(=N\NC(=O)c1csc(C)c1C)c1ccc(Cl)s1 | inconclusive: -45.4%
48 | COc1ccc(-n2nnnc2SCC#CCO)cc1 | inconclusive: -33.7%
49 | Cc1ccc(C)c(NC(=O)CN(C)S(=O)(=O)c2ccc(F)cc2)c1 | inconclusive: -55.5%
50 | O=C(Nn1c(-c2ccc(F)cc2)nc2ccccc2c1=O)C1CCCCC1 | inactive: 6.69%
51 | O=C(CN1C(=O)C2C3C=CC(C3)C2C1=O)N1CCc2ccccc2C1 (stereo not drawn) | inactive: 3.71%
52 | CC1(C)Cc2c(c(-c3ccco3)nc3n[nH]c(N)c23)CO1 | inactive: -9.19%
53 | Cc1ccccc1-n1c(SC/C(O)=C(\C#N)c2nc3ccccc3[nH]2)nnc1-c1ccncc1 | inactive: -17.3%
54 | CCN(CC)CCNC(=O)c1ccc(Cl)c(S(=O)(=O)Nc2ccccc2OC)c1 | inconclusive: -31.4%
55 | O=C(/C=C/c1c[nH]c2ccccc12)c1ccccc1 | inactive: 31.3%
56 | CC(C)CNC(=O)CCCc1ccccc1 | inactive: 11.9%
57 | O=C1NC(=O)/C(=C\c2ccccc2OCc2ccc([N+](=O)[O-])cc2)N1 | inconclusive: -49.2%
58 | CCCCCOc1ccc(CSC(=N)N)cc1[N+](=O)[O-] | inconclusive: -55.6%
59 | O=C(NC1CCS(=O)(=O)C1)c1cn(-c2ccccc2)nc1-c1ccccc1 (stereo not drawn) | inactive: 18.9%
60 | Cc1cc(C(=O)N/N=C/c2ccc(-c3ccccc3Cl)o2)n[nH]1 | inconclusive: -54.2%
61 | CC(C)CC1(C(=O)NCc2ccccn2)C=CCN1C(=O)c1ccccc1 (stereo not drawn) | inconclusive: -72.7%
62 | Cc1cc(Cl)c(OCCOCCN2CCCCC2)c(Br)c1 | active: -102%
63 | O=C(NCCCn1ccnc1)c1cc(C(=O)C2CC2)c[nH]1 | inconclusive: -34.3%
64 | Cc1ccc2cc(C(c3nnnn3Cc3ccccc3)N3CCN(c4ccccc4)CC3)c(=O)[nH]c2c1 (stereo not drawn) | inactive: -1.69%
65 | Cc1ccc(C(=O)N[C@H](C(=O)OCC(=O)NC2CCS(=O)(=O)C2)C(C)C)cc1 (stereo partly drawn) | inconclusive: -30%
66 | CCCCCSc1nc2c(c(=O)[nH]c(=O)n2C)n1C(C)C | active: -119%

Copied from above: compounds 61 to 62
Row | SMILES | activity change (PNC), negative = inhibition
61 | CC(C)CC1(C(=O)NCc2ccccn2)C=CCN1C(=O)c1ccccc1 (stereo not drawn) | inconclusive: -72.7%
62 | Cc1cc(Cl)c(OCCOCCN2CCCCC2)c(Br)c1 | active: -102%

Continued.

Row | SMILES | activity change (PNC), negative = inhibition
67 | COc1ccc(OCC(=O)N2CCN(C(=O)Cc3ccccc3)CC2)cc1 | inconclusive: -45%
68 | Cc1ccc(N=Cc2c(O)n(C)c(=O)n(C)c2=O)nc1 | inactive: -5.92%
69 | CCCn1c(=O)c(C(=O)NNS(=O)(=O)c2ccc(Cl)cc2)c(O)c2ccccc21 | inactive: 12.1%
70 | CCOc1ccc(NC2=C(Cl)C(=O)N(C3CCCCC3)C2=O)cc1 | inconclusive: -36.8%
71 | Cc1cccc(NC(=O)CSc2nnc(-c3ccco3)c(-c3ccco3)n2)c1C | inactive: -0.23%
72 | Cc1ccc(C(C(=O)NC2CCCCC2)N(Cc2ccco2)C(=O)C2COc3ccccc3O2)o1 (stereo not drawn) | inactive: 11.6%
73 | Fc1ccc(CSc2nncn2NCc2ccc3c(c2)OCO3)cc1 | inconclusive: -39.6%
74 | CC1(C)Cc2c(sc3nc4n(c(=N)c23)CCCCC4)CO1 | inconclusive: -35.1%
75 | S=c1[nH]nc(-c2cccnc2)n1-c1ccccc1 | active: -87.8%
76 | Cc1ncc(CO)c(/C=N/N=C/c2ccccc2O)c1O | inconclusive: -56.5%
77 | COc1ccc(C2C(C(=O)NCCN3CCOCC3)c3ccccc3C(=O)N2C2CCCCC2)cc1 (stereo not drawn) | inconclusive: -34.2%
78 | CC1(C)CC(=O)C(C(C2=C(O)CC(C)(C)CC2=O)c2cccnc2)C(=O)C1 (stereo not drawn) | inconclusive: -40.2%
79 | CN(C)c1ccc(CNC(=O)CN(C)S(=O)(=O)c2cccc3cccnc23)cc1 | inconclusive: -31.9%
80 | Cc1ccc(Cn2c(NCCc3ccccc3)nc3c2c(=O)n(C)c(=O)n3C)cc1 | inconclusive: -48.2%
81 | COc1ccc(C(=O)N2c3cc4c(cc3C(C)=CC2(C)C)OCO4)cc1 | inconclusive: -40.3%
82 | Cc1cccc(NC(=O)c2sc3nc4c(c(-c5ccco5)c3c2N)CCC4)c1 | inconclusive: -35%
83 | Cc1onc(-c2ccccc2Cl)c1C(=O)N1CCN(c2ccccc2)CC1 | inconclusive: -53.6%
84 | CN(C)S(=O)(=O)N1CCN(C(=O)c2cccs2)CC1 | inconclusive: -40.6%
85 | COc1ccc(N2CCN(CCCNC(=O)C3CCCN(S(=O)(=O)c4cnc[nH]4)C3)CC2)cc1 (stereo not drawn) | inconclusive: -47.8%
86 | COC(=O)C1CCN(C(c2ccc(OC)c(OC)c2)c2sc3nc(C)nn3c2O)CC1 (stereo not drawn) | inconclusive: -43.9%
87 | CSC1=NCCN1C(=O)COc1ccccc1 | inconclusive: -31%
88 | COc1ccc(-c2nc(C)sc2C)cc1 | inactive: 15.1%

A second format for 2 compounds above.
Cc1ccc(N=Cc2c(O)n(C)c(=O)n(C)c2=O)nc1
  activity change (PNC), negative = inhibition: inactive: -5.92%
CCCn1c(=O)c(C(=O)NNS(=O)(=O)c2ccc(Cl)cc2)c(O)c2ccccc21
  activity change (PNC), negative = inhibition: inactive: 12.1%
